These are yes or no findings as the source states them, for the method shown. Some results given as binding are weak or reduced against the parent protein; the word gives no strength.
How the values were obtained:
[1] = molecular target: T1, recombinant 158P1D7 protein (human) (UniProt Q9H5Y7); experiment: ELISA on recombinant 158P1D7 protein
T1 sequence: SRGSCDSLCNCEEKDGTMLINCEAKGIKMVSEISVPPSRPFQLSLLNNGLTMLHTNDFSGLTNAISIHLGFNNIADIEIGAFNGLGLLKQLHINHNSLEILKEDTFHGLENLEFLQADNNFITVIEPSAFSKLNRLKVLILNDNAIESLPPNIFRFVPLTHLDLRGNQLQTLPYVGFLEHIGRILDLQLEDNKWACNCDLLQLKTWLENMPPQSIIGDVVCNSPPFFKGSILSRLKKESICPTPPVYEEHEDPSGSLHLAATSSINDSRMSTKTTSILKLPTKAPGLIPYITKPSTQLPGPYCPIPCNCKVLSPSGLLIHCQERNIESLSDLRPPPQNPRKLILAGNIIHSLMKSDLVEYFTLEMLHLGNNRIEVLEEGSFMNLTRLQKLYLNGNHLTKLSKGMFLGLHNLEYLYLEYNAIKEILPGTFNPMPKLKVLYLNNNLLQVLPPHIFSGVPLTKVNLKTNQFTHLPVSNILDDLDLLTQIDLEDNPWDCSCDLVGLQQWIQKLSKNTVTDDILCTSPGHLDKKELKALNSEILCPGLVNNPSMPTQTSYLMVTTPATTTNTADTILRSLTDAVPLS

[2] = molecular target: T1, recombinant 158P1D7 protein (human); experiment: ELISA on 158P1D7 recombinant protein

B1: 158P1D7 MAb Ha15-10ac12 (antibody, human IgG2, kappa, V domains shown)
VH: QVQLVESGGGVVQPGRSLRLSCAASGFTFSSYGMHWVRQAPGKGLEWVAVIWYDGSNQYYADSVKGRFTISRDNSKNTLFLQMHSLRAEDTAVYYCARGLTSGRYGMDVWGQGTTVTVSS
VL: DIVMTQSPLSLPVTPGEPASISCRSSQSLLLSHGFNYLDWYLQKPGQSPQLLIYLGSSRASGVPDRFSGSGSGTDFTLKISRVEAEDVGLYYCMQPLQIPWTFGQGTKVEIKR
notes: Fully human IgG2 kappa antibody from XenoMouse; It was tested both as material purified from the hybridoma and as recombinant material from CHO-K1SV cells; also called Ha15-10ac12 MAb
binding [1]: binds | binding [2]: binds

Source: patent publication USRE47103 (AGENSYS, dated 2018)
